These are yes or no findings as the source states them, for the method shown. Binding seen in cells or lysates may run through a third protein. Some entries that bind do so weakly or less than the wild type.
Target: Kelch-like ECH-associated protein 1 (mouse (endogenous in HL-1)) (UniProt Q9Z2X8)
Assay: co-IP; HL-1 cells with or without LPS (10 ug/ml); overnight with 1 mg of cell extract in 400 uL lysis buffer, 2.5 mM DTT, 30 uL glutathione agarose beads and 5 ug antibody; which protein was precipitated not given

The chains behind the UniProt entries cited, without tags or fusion partners.
UniProt Q9Z2X8: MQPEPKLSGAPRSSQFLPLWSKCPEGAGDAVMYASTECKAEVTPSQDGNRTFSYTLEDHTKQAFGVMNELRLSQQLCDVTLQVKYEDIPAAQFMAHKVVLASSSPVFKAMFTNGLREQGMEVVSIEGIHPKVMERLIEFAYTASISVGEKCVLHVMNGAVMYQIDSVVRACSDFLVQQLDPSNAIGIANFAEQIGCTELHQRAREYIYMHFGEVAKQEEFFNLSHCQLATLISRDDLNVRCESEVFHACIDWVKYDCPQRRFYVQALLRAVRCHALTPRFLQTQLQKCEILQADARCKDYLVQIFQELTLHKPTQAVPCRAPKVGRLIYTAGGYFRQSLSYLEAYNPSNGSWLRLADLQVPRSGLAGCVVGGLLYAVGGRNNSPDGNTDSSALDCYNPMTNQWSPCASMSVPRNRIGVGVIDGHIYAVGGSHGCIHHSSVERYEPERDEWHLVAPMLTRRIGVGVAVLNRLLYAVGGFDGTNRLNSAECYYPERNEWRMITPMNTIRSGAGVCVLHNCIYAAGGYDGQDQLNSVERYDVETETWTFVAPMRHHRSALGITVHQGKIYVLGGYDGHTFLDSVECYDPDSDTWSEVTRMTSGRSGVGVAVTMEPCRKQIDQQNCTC

binding: binds
B1: Serine/threonine kinase 3 (enzyme, UniProt Q9JI10 1-497)
chain: MEQPPASKSKLKKLSEDSLTKQPEEVFDVLEKLGEGSYGSVFKAIHKESGQVVAIKQVPVESDLQEIIKEISIMQQCDSPYVVKYYGSYFKNTDLWIVMEYCGAGSVSDIIRLRNKTLTEDEIATILKSTLKGLEYLHFMRKIHRDIKAGNILLNTEGHAKLADFGVAGQLTDTMAKRNTVIGTPFWMAPEVIQEIGYNCVADIWSLGITSIEMAEGKPPYADIHPMRAIFMIPTNPPPTFRKPELWSDDFTDFVKKCLVKSPEQRATATQLLQHPFIKNAKPVSILRDLIAEAMEIKAKRHEEQQRELEEEEENSDEDELDSHTMVKTSSESVGTMRATSTMSEGAQTMIEHNSTMLESDLGTMVINSEEEEEEEEEEEEDGTMKRNATSPQVQRPSFMDYFDKQDFKNKSHENCDQSMREPGPMSNSVFPDNWRVPQDGDFDFLKNLSLEELQMRLKALDPMMEREIEELHQRYSAKRQPILDAMDAKKRRQQNF
